From paper doi:10.1101/2022.03.06.483192
Read-outs that look alike come from different tables or passages of the source. These are yes or no findings as the source states them, for the method shown. A result given as binding can be weak or reduced; the word gives no strength. For some of these results: Binding seen in cells or lysates may run through a third protein. For some of these results: Where a sequence is shown, tags or fusion partners need not be part of it.

By UniProt entry, the sequences of proteins in these tests, tags left out. Where a name states a change or a piece, a line headed by the entry shows the natural chain unless it says otherwise.
UniProt A1L190: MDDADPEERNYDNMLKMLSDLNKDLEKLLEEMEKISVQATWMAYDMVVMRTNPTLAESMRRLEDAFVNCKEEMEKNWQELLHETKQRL

What was measured:
MBP-SYCP1αNcore [1] = target: T1, MBP-SYCP1αNcore (UniProt Q15431); assay: pull-down
T1 sequence: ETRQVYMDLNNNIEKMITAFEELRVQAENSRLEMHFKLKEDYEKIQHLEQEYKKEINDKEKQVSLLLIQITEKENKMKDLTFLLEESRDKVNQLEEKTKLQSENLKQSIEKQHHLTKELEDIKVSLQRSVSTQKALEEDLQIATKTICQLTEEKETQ

MBP-SYCP1αNcore [2] = target: T1, MBP-SYCP1αNcore; assay: pull-down; remark: listed apart in the source
SYCP1αN = target: T2, SYCP1αN (UniProt Q15431); assay: SEC
T2 sequence: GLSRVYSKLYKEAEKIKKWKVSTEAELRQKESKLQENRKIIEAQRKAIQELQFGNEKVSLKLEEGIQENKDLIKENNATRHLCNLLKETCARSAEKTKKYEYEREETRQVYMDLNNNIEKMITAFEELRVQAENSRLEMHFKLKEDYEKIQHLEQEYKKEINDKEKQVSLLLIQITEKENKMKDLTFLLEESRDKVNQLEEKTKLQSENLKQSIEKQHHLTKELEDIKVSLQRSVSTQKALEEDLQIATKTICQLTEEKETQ

SYCP1αNcore [3] = target: T3, SYCP1αNcore (UniProt Q15431); assay: SEC
T3 sequence: T1 sequence

SYCP1αNcore [4] = target: T3, SYCP1αNcore; assay: SEC; remark: listed apart in the source

Row | binding (MBP-SYCP1αNcore [1]) | binding (MBP-SYCP1αNcore [2]) | binding (SYCP1αN) | binding (SYCP1αNcore [3]) | binding (SYCP1αNcore [4]) | Substance
1 | binds | binds |  |  |  | His-SYCE3 (from UniProt A1L190)
2 |  | binds |  |  |  | His-SYCE3 W41E Y44E (from UniProt A1L190)
3 |  | binds |  |  |  | His-SYCE3 P53Q (from UniProt A1L190)
4 |  |  | binds | binds | binds | SYCE3 (from UniProt A1L190)
